The other results are listed elsewhere or left out.
Tested on: T1, CTL2-GFP (C. trachomatis L2/434/Bu, GFP-expressing)
T1 construct: L2/434/Bu, GFP-expressing
Design: species or system HeLa; Intracellular C. trachomatis growth in HeLa cells, bulk GFP fluorescence relative to DMSO
Details: bulk GFP, single well; 28.5 h, 10 µM; inhibitor

| SMILES | % of control remaining [%] |
| --- | --- |
| COc1ccc(S(=O)(=O)Nc2ccccc2C(=O)Nc2ccc(F)cc2)cc1OC [CBK045404] | 111.058 |
| CN1CCc2c(sc3ncn4nc(-c5ccncc5)nc4c23)C1 [CBK288540] | 124.766 |
| Cc1cc(N2C(=O)NS(=O)(=O)c3cccnc32)ccc1F [CBK288461] | 126.252 |
| Cc1ccc(C2(O)CCN(CCNC(=O)C3CCCCC3)CC2)cc1 [CBK283323] | 112.922 |
| O=C(O)C(Cc1c[nH]cn1)N1C(=O)C2C3C=CC(C3)C2C1=O (stereo not drawn) [CBK286705] | 109.535 |
| Cc1nnc(SCCCCSc2nnc(C)n2N)n1N [CBK265686] | 131.368 |
| CCCN1CCC(NC(=O)c2cc(COc3cccc(F)c3)[nH]n2)CC1 [CBK306753] | 86.2805 |
| Cc1nc(COc2ccccc2)nc(O)c1Cl [CBK057810] | 101.347 |
| Cc1ccc(S(=O)(=O)Nc2ccc(Nc3cc(-c4cc(C(F)(F)F)cc(C(F)(F)F)c4)ncn3)cc2)cc1 [CBK090968] | 170.733 |
| Cc1nc(C2CCN(Cc3ccccc3)C2)c2ccccn12 (stereo not drawn) [CBK282111] | 156.396 |
| Cc1csc(N2CCN(C(=O)CCc3nc(C(C)C)no3)CC2)n1 [CBK305341] | 129.2 |
| Cn1c(=O)cc(Oc2ccc(F)cc2)c2ccccc21 [CBK281451] | 127.199 |
| Cc1cccc(CN(CC(C)(C)CN)C(=O)NC(C)c2cccc3ccccc23)n1 (stereo not drawn) [CBK002423C] | 101.6 |
| CCOCN(C(=O)Cn1c(C(C)O)nc2ccccc21)c1c(C)cccc1CC (stereo not drawn) [CBK297722] | 133.44 |
| O=C1NC(=O)C(CCCCN2CCC(Cc3ccccc3)CC2)N1 (stereo not drawn) [CBK126435] | 93.0237 |
| CC1(C)CC(=O)c2cnc3ncnn3c2C1 [CBK007345] | 119.664 |
| CCCCC(C(=O)O)N1C(=O)C2CC=C(Cl)CC2C1=O (stereo not drawn) [CBK286536] | 136.978 |
| O=C(NO)Nc1cc(Cl)cc(Cl)c1 [CBK016430] | 123.613 |
| Cc1ccc2c(C)c(C(=O)Nc3sc4c(c3C(=O)NCc3ccco3)CCC4)oc2c1 [CBK267662] | 129.941 |
| CC(=O)NC(O)C(=O)c1cccs1 (stereo not drawn) [CBK027756] | 81.282 |
| COc1cccc(Cn2c(C3CCNCC3)cc3cccnc32)c1 [CBK285076] | 143.043 |

| SMILES | % of control remaining [%] |
| --- | --- |
| O=S(=O)(NCCn1c(-c2ccncc2)nc2ccccc21)c1ccccc1 [CBK288578] | 112.266 |
| Cc1ccc(S(=O)(=O)NC(CC(=O)Nc2ccc(Br)cc2)c2ccccc2)cc1 (stereo not drawn) [CBK265110] | 100.568 |
| CC1CCN(C(=O)c2cc(-c3ccco3)[nH]n2)CC1 [CBK296648] | 148.27 |
| Cc1cc(=O)oc2ccc(OCC(=O)N(Cc3ccc(F)cc3)Cc3ccco3)cc12 [CBK266639] | 114.829 |
| c1cnn(CCNc2nc3nonc3nc2N2CCCCC2)c1 [CBK306740] | 108.364 |
| C(=N\N1CCOCC1)/c1ccc2c(c1)OCO2 [CBK026446] | 99.7988 |
| CCN1CCCC2(CCN(C(=O)c3ccoc3)C2)C1 (stereo not drawn) [CBK132832] | 51.6374 |
| Cc1cccc(C2(CNC(=O)C3COCCO3)CCCCC2)c1 (stereo not drawn) [CBK305087] | 103.137 |
| Cc1cccc(CN2CC[C@@H]3[C@H](C2)[C@@H](c2ccsc2)CN3C(=O)c2ccccc2F)c1 [CBK285659] | 95.0593 |
| CC(=O)Nc1cccc(-c2cnc3[nH]c(=O)n([C@H](C)c4ccccc4)c3n2)c1 [CBK064188] | 91.3379 |
| O=C(O)CCc1ccc(S(=O)(=O)Nc2ccc(N3CCCC3=O)cc2)cc1 [CBK295647] | 150.616 |
| CN1C(=O)c2ccccc2C(=O)[C@@]2(C)CN(CC(C)(C)C)C[C@@H]12 [CBK283481] | 110.342 |
| N#CCCn1cc(C(=O)Nc2ccc(C(=O)O)cc2)c(-c2cc3ccccc3o2)n1 [CBK267866] | 123.569 |
| CCN(CC)CCCNC(=O)N1CCN(Cc2ccccc2)CC1 [CBK155655] | 123.307 |
| CCOc1ccc(C(N)CC(=O)O)cc1 (stereo not drawn) [CBK262933C] | 127.439 |
| O=C(CCCOc1ccc(Cl)cc1Cl)NO [CBK288436] | 123.381 |
| Cc1cc(C)cc(Oc2coc3c(CN4CCOCC4)c(O)ccc3c2=O)c1 [CBK263908] | 110.159 |
| CCN1CCN(c2ccc(NC(=O)c3cccnc3)cc2Cl)CC1 [CBK266629C] | 177.15 |
| CC(=O)Nc1ccc(C2=NC3SC(c4ccc(NC(C)=O)cc4)=NC3S2)cc1 (stereo not drawn) [CBK019799] | 136.612 |
| O=C(Nc1ccccc1OC1CCNCC1)c1ccccc1 [CBK050238T] | 112.466 |
| c1ccc(C(NCc2cnc(C3CCC3)s2)C2CCCC2)nc1 (stereo not drawn) [CBK304022] | 123.926 |

| SMILES | % of control remaining [%] |
| --- | --- |
| CC[C@H](Cn1nc(-c2cccs2)ccc1=O)NC(=O)C(C)C [CBK284296] | 99.3117 |
| Cc1c(Cl)c([N+](=O)[O-])nn1CCCC(=O)Nc1cc(Br)ccc1O [CBK268875] | 134.719 |
| CC1CCCN(CC(O)c2ccc3c(c2)CCCN3C(=O)C2CC2)C1 (stereo not drawn) [CBK282136] | 136.009 |
| COc1cccc(OCC(O)CN2CCN(Cc3ccccc3)CC2)c1 (stereo not drawn) [CBK074856C] | 119.405 |
| CCOc1ccc(-c2cn(C(=O)Nc3ccccc3)nc2N)cc1 [CBK267317] | 150.533 |
| Cc1cc(C(=O)Nc2nnc(Cc3ccccc3)s2)c2ccccc2n1 [CBK295607] | 122.694 |
| CC(NC(=O)CC(F)(F)F)c1nc(-c2ccncc2)cs1 (stereo not drawn) [CBK306370] | 136.175 |
| Fc1c(CN2CCOCC2)cccc1CN1CCOCC1 [CBK085967] | 138.286 |
| COc1ccc(OC)c(C(C)NC(=O)C2CCN(CCc3cccs3)CC2)c1 (stereo not drawn) [CBK148766] | 101.514 |
| Cc1c(CNc2nnc(C(C)(C)C)o2)cnn1C [CBK306439] | 76.8669 |
| Cc1nccn1-c1ccc(NC(=O)c2ccn(C(F)F)n2)cc1 [CBK281410] | 96.5141 |
| CN1CCN(c2cnn(CCCOc3ccccc3)c(=O)c2)CC1 [CBK307203] | 115.854 |
| CCc1nn(CC(=O)NCC2CC2)c(=O)c2cc3ccsc3n12 [CBK284129] | 123.751 |
| CC(=O)N1CCCC(c2nc(-c3ccncc3)ncc2-c2ccccc2)C1 (stereo not drawn) [CBK291110] | 152.877 |
| COCCN(Cc1ccccc1C)C(=O)C1CCc2nn(C)c(=O)n2C1 (stereo not drawn) [CBK306934] | 156.362 |
| CCN(CC)C(=O)C1CCCN(C(=O)Nc2ccc3c(c2)OCCO3)C1 (stereo not drawn) [CBK156135] | 100 |
| CC(C)(C)c1cc(CN(Cc2cc(C(C)(C)C)c(O)c(C(C)(C)C)c2)C2CCCCC2)cc(C(C)(C)C)c1O [CBK261996] | 99.7254 |
| NCCCNC(=O)c1cc2ccccc2[nH]1 [CBK267639] | 117.752 |
| CCOC(=O)N1CCN(S(=O)(=O)c2ccc3c(c2)oc(=O)n3C)CC1 [CBK304667] | 61.5978 |
| COc1ccccc1-c1ccc(CN2CCC(NC(C)=O)(c3ccc(F)cc3)CC2)cc1 [CBK286349] | 124.378 |
| O=C(O)c1ccc(CN2C(=O)c3ccc(C(=O)O)cc3C2=O)cc1 [CBK262823] | 127.379 |

In the list so far, seven have a thiophene ring, fused or not:

| SMILES | % of control remaining [%] |
| --- | --- |
| CN1CCc2c(sc3ncn4nc(-c5ccncc5)nc4c23)C1 [CBK288540] | 124.766 |
| Cc1ccc2c(C)c(C(=O)Nc3sc4c(c3C(=O)NCc3ccco3)CCC4)oc2c1 [CBK267662] | 129.941 |
| CC(=O)NC(O)C(=O)c1cccs1 (stereo not drawn) [CBK027756] | 81.282 |
| Cc1cccc(CN2CC[C@@H]3[C@H](C2)[C@@H](c2ccsc2)CN3C(=O)c2ccccc2F)c1 [CBK285659] | 95.0593 |
| CC[C@H](Cn1nc(-c2cccs2)ccc1=O)NC(=O)C(C)C [CBK284296] | 99.3117 |
| COc1ccc(OC)c(C(C)NC(=O)C2CCN(CCc3cccs3)CC2)c1 (stereo not drawn) [CBK148766] | 101.514 |
| CCc1nn(CC(=O)NCC2CC2)c(=O)c2cc3ccsc3n12 [CBK284129] | 123.751 |

Remaining list, next part

| SMILES | % of control remaining [%] |
| --- | --- |
| CC(C)(Oc1ccc(F)cc1)C(=O)N1CCC(C(=O)NCCc2ccccc2)C1 (stereo not drawn) [CBK285702] | 113.945 |
| CCCC/C=C/c1cncc(NCc2ccc(OC)cc2)n1 [CBK037933] | 161.639 |
| COC1C(O)C(CO)OC1n1cc(I)c(N)nc1=O (stereo not drawn) [CBK201296] | 135.97 |
| O=C(NC1CCCC1)c1ccnc2ccccc12 [CBK200237] | 114.075 |
| O=C(Cc1ccccc1)N1CCN(CCCc2ccccc2)CC1 [CBK263451G] | 100 |
| Cc1ccc(-n2nc(C(=O)NC3(C#N)CCSC3)cc2C)cc1 (stereo not drawn) [CBK306403] | 147.129 |
| Cc1cc(N(C)CCOc2ccccc2F)nc(N)n1 [CBK305969] | 118.761 |
| Cc1ccn2cc(-c3ccc4c(c3)CC(C)N4S(C)(=O)=O)nc2c1 (stereo not drawn) [CBK285183] | 120.987 |
| Oc1ccc(-c2oncc2-c2ccccc2)c(O)c1 [CBK288228] | 119.252 |
| Cc1ccc(C(=O)Nc2nnn(C)n2)c(Cl)c1 [CBK287856] | 136.887 |
| CC(C)CNc1nc(-c2ccc(F)cc2)cnc1N [CBK063815] | 124.383 |
| Cc1nc2ncnn2c(C)c1CCC(=O)Nc1cccc(CCc2ccncc2)c1 [CBK285557] | 120.59 |
| Cc1ccc(-c2cc(C(F)(F)F)n3ncc(C(=O)NCc4c(C)nn(C)c4C)c3n2)cc1 [CBK293956] | 115.815 |
| Cc1nc2c(c(=O)[nH]1)CN(Cc1cn(C(C)C)c3ccccc13)CC2 [CBK284014] | 135.524 |
| COC(=O)[C@H]1CN(C(=O)c2cccs2)C[C@@H]1c1ccccc1F [CBK283775] | 129.91 |
| COc1ccc(C(=O)O)cc1N1C(=O)CC(c2c(C)nn(-c3ccccc3)c2N)C1=O (stereo not drawn) [CBK291120] | 94.6284 |
| CC(C)S(=O)(=O)N1CCC(n2c(=O)[nH]c3ccccc32)CC1 [CBK149693] | 86.9001 |
| CC1(C)OC(=O)C(=CNC(CCC(=O)O)C(=O)O)C(=O)O1 (stereo not drawn) [CBK263510] | 112.16 |
